Test results reported in paper doi:10.1101/2025.11.23.690026.
Results are given in words; binding and its absence hold for the method and conditions named. Binding seen in cells or lysates may run through a third protein. A yes stands for co-enrichment or nearness to the bait. Other partners may have been found. A no says only that the protein was not detected with the bait.

Protein sequences, listed by entry. Tags and fused reporters are not part of them.
UniProt P22082: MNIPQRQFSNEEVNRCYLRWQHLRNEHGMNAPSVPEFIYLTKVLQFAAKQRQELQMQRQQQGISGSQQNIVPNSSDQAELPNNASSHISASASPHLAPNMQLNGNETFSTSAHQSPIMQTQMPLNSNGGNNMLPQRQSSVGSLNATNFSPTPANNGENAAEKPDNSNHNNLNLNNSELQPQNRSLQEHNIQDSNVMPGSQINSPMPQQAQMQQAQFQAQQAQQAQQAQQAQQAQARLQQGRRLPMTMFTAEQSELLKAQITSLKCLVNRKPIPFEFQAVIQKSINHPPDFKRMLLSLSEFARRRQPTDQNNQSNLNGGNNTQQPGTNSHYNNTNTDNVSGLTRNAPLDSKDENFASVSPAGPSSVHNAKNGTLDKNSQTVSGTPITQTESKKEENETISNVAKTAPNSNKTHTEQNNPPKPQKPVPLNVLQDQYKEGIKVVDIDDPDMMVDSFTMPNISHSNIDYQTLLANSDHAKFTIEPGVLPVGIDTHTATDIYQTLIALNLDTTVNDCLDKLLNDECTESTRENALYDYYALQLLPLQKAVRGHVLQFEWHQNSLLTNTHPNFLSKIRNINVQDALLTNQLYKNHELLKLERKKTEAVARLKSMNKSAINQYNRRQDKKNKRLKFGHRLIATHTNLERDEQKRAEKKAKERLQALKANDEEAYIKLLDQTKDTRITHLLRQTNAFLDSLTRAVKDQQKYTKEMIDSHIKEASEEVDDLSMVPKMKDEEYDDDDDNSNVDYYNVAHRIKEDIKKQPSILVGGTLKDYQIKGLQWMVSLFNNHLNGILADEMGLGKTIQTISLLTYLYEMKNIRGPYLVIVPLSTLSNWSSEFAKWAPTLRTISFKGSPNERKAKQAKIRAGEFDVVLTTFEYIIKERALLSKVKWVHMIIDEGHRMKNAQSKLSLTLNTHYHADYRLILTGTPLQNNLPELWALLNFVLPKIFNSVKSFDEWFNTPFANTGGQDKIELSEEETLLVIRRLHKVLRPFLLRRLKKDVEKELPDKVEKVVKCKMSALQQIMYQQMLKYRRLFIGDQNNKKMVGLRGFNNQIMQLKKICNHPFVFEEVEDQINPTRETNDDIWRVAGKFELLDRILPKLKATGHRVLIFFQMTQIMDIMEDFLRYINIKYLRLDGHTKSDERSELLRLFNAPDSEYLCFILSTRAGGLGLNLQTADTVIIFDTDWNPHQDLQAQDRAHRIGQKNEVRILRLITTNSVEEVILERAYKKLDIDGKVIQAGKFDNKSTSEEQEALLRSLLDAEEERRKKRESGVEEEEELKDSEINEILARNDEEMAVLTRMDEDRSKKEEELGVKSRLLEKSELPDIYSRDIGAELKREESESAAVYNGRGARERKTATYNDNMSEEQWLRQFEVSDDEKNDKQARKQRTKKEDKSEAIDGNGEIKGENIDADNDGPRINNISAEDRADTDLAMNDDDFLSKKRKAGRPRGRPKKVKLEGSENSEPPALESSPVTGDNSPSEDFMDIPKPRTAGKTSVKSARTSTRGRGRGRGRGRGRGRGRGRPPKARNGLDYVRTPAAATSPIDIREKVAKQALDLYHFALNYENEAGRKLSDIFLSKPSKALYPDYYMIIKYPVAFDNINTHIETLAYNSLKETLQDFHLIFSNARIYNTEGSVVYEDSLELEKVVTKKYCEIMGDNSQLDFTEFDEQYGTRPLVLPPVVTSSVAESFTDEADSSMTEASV
UniProt P18480: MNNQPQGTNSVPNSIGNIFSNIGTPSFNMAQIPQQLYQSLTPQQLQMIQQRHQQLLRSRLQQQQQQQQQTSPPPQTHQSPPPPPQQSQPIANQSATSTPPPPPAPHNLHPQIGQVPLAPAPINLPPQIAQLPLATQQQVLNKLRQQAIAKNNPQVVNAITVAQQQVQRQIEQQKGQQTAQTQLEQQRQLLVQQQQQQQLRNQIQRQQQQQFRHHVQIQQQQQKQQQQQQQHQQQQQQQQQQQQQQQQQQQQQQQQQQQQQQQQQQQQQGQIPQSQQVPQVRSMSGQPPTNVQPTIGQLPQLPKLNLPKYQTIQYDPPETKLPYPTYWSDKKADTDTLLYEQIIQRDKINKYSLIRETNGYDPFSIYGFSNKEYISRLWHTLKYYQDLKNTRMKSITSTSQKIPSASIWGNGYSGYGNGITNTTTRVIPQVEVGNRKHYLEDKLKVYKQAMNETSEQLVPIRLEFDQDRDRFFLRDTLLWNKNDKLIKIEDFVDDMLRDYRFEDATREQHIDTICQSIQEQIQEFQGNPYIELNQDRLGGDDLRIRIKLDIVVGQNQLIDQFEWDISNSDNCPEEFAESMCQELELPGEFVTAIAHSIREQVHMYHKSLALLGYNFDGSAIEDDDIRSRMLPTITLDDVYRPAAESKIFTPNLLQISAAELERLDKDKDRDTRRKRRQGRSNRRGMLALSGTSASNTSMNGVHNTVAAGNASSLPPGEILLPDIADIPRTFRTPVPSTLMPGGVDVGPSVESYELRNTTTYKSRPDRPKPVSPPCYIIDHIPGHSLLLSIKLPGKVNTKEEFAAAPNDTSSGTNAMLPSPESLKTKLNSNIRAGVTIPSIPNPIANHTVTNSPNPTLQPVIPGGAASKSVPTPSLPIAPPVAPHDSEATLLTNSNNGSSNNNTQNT
UniProt P43554: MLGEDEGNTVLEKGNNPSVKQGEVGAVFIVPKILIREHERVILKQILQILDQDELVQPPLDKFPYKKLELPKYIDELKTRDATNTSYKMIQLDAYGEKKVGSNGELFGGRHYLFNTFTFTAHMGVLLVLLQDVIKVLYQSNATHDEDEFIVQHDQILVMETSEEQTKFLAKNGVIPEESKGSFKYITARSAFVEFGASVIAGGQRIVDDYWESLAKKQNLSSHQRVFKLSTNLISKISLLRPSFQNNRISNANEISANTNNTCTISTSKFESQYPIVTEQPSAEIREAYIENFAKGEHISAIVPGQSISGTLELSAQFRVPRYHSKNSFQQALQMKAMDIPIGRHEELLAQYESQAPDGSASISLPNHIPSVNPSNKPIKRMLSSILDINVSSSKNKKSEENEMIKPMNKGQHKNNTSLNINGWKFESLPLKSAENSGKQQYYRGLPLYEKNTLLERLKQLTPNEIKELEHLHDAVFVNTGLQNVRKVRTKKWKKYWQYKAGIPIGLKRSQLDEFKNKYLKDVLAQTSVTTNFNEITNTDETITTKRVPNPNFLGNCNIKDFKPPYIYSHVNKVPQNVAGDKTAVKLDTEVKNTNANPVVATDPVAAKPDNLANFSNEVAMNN
UniProt P53628: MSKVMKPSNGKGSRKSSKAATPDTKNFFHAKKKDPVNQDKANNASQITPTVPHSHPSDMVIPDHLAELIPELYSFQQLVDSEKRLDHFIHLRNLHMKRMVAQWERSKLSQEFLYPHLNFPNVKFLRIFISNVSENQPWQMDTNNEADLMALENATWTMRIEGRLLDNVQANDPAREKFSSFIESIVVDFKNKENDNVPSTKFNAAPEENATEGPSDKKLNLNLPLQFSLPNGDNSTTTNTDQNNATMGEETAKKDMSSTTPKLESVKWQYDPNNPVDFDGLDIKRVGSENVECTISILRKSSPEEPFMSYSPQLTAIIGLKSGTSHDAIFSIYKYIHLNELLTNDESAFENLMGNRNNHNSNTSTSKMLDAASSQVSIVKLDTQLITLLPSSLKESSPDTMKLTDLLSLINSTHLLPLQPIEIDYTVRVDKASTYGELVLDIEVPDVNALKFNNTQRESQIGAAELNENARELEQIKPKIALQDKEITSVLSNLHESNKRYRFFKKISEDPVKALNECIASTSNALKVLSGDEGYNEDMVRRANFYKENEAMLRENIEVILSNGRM
UniProt P18888: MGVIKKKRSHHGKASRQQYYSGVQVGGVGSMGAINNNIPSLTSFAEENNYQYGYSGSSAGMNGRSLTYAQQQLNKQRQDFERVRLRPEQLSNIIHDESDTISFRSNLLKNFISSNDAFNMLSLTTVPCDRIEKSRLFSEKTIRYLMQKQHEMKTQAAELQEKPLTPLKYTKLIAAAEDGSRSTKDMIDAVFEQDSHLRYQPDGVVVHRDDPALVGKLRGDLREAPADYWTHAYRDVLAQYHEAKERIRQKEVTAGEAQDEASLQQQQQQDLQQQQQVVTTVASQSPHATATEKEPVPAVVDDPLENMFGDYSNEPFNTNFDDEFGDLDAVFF
UniProt P35189: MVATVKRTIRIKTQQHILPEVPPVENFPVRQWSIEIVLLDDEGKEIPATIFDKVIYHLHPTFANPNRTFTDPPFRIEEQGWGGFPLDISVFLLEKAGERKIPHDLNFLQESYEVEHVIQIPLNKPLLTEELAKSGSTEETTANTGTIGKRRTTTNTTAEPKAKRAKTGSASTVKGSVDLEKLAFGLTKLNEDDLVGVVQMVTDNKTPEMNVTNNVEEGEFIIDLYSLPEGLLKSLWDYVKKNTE
UniProt Q05123: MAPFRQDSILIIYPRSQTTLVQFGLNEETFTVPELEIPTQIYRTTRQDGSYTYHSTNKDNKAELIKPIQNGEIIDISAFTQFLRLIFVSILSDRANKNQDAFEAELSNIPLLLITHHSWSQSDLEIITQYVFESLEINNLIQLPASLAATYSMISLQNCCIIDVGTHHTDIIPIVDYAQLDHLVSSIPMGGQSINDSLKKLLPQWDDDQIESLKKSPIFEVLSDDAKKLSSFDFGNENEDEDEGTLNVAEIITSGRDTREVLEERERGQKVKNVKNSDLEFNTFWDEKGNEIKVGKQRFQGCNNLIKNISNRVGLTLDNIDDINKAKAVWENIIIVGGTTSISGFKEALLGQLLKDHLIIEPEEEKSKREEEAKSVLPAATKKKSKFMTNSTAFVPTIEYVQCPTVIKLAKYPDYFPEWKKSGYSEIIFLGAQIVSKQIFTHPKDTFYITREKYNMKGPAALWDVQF
UniProt Q12406: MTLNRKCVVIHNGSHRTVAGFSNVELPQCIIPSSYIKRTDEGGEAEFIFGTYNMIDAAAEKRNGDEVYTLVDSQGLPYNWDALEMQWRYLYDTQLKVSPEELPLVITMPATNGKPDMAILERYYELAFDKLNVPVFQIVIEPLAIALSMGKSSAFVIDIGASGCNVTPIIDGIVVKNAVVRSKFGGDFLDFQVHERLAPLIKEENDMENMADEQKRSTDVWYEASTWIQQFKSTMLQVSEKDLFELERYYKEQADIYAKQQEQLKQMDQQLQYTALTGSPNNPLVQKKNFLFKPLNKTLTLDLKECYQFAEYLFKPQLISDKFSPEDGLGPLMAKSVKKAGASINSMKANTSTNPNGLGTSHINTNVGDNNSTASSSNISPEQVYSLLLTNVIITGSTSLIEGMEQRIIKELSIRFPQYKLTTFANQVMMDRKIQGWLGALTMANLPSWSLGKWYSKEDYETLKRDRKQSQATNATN
UniProt P32591: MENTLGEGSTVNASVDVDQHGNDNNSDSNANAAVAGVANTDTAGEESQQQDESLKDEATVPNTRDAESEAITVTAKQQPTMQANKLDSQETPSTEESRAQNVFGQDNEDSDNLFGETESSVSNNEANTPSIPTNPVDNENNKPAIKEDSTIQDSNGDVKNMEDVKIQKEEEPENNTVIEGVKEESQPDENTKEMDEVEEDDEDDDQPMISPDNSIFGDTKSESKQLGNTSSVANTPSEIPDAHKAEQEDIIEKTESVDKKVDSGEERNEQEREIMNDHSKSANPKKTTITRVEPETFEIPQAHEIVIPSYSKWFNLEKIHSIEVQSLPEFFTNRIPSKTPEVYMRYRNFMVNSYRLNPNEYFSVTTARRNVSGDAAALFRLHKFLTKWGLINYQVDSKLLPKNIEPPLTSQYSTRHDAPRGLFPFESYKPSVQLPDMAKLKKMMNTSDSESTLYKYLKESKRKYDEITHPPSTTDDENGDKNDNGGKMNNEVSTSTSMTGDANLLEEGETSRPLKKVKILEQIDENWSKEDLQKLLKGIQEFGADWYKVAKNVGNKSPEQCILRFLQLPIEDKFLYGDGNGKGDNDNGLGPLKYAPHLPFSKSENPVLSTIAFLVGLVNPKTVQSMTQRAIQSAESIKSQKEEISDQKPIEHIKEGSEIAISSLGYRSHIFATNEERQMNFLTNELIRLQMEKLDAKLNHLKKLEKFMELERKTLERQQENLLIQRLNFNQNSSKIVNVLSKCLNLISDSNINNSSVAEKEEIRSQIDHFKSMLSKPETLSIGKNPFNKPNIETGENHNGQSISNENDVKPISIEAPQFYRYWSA

B1: Snf11 (protein, UniProt P38956 1-169)
chain: MSSEIAYSNTNTNTENENRNTGAGVDVNTNANANANATANATANATANATAELNLPTVDEQRQYKVQLLLHINSILLARVIQMNNSLQNNLQNNINNSNNNNIIRIQQLISQFLKRVHANLQCISQINQGVPSAKPLILTPPQLANQQQPPQDILSKLYLLLARVFEIW
B2: Rmt1 (enzyme, UniProt P38074 1-348)
chain: MSKTAVKDSATEKTKLSESEQHYFNSYDHYGIHEEMLQDTVRTLSYRNAIIQNKDLFKDKIVLDVGCGTGILSMFAAKHGAKHVIGVDMSSIIEMAKELVELNGFSDKITLLRGKLEDVHLPFPKVDIIISEWMGYFLLYESMMDTVLYARDHYLVEGGLIFPDKCSIHLAGLEDSQYKDEKLNYWQDVYGFDYSPFVPLVLHEPIVDTVERNNVNTTSDKLIEFDLNTVKISDLAFKSNFKLTAKRQDMINGIVTWFDIVFPAPKGKRPVEFSTGPHAPYTHWKQTIFYFPDDLDAETGDTIEGELVCSPNEKNNRDLNIKISYKFESNGIDGNSRSRKNEGSYLMH
B3: Swi1 (endogenous) (protein, UniProt P09547 1-1314)
chain: MDFFNLNNNNNNNNTTTTTTTTNNNNTNNNNTNNNNNPANNTNNNNSTGHSSNTNNNTNNNNTNTGASGVDDFQNFFDPKPFDQNLDSNNNNSNSNNNDNNNSNTVASSTNFTSPTAVVNNAAPANVTGGKAANFIQNQSPQFNSPYDSNNSNTNLNSLSPQAILAKNSIIDSSNLPLQAQQQLYGGNNNNNSTGIANDNVITPHFITNVQSISQNSSSSTPNTNSNSTPNANQQFLPFNNSASNNGNLTSNQLISNYAASNSMDRSSSASNEFVPNTSDNNNNSNNHNMRNNSNNKTSNNNNVTAVPAATPANTNNSTSNANTVFSERAAMFAALQQKQQQRFQALQQQQQQQQNQQQQNQQPQQQQQQQQNPKFLQSQRQQQQRSILQSLNPALQEKISTELNNKQYELFMKSLIENCKKRNMPLQSIPEIGNRKINLFYLYMLVQKFGGADQVTRTQQWSMVAQRLQISDYQQLESIYFRILLPYERHMISQEGIKETQAKRIFLQQFLQELLKKVQQQQQAAALANANNNINSASSAPTPAAPGASVPATAAPGTEAGIVPVSANTPKSLNSNININVNNNNIGQQQVKKPRKQRVKKKTKKELELERKEREDFQKRQQKLLEDQQRQQKLLLETKLRQQYEIELKKLPKVYKRSIVRNYKPLINRLKHYNGYDINYISKIGEKIDSNKPIFLFAPELGAINLHALSMSLQSKNLGEINTALNTLLVTSADSNLKISLVKYPELLDSLAILGMNLLSNLSQNVVPYHRNTSDYYYEDAGSNQYYVTQHDKMVDKIFEKVNNNATLTPNDSNDEKVTILVDSLTGNQLPTPTPTEMEPDLDTECFISMQSTSPAVKQWDLLPEPIRFLPNQFPLKIHRTPYLTSLKKIKDEIDDPFTKINTRGAEDPKVLINDQLSTISMILRNISFSDNNSRIMSRNFYLKRFISDLLWLVLIHPENFTCNRKILNFKKDLVIVLSNISHLLEIASSIDCLLILILVISFGQPKLNPMASSSSFGSESLTFNEFQLQWGKYQTFGVDILAKLFSLEKPNLNYFKSILLNKNTGNNLYDRNSNNNHKDKKLLRRLLNLYNDNNKNNNNRHNLLNDVVSFLFSAIPLQQVLSQSADPSLLIDQFSPVISQSLTSILVIVQKILPLSNEVFEISENNSDSNSNNNGNKDSSFNFNKNLPFVWLSSEENIGSGLLKLSEIILNINNSTSKNTLLQQQNYSKVLLPSINISCVQLIKCLVEKSICFENCLNNDPEILKKIASIPNLFPTDLEIFQLFTNPSVDIQIINQYQLLYNLKNDILTNLE
B4: Rmt2 (enzyme, UniProt Q03305 1-412)
chain: MSELHALLTFPERPISQSYYVPKLQHFLKSGIPATYTLEQVAAFEHEEKNRNGDKEFRESTDDNKTSNTTPLHVLARSLPLDIKDEELQVVMDMMNILFEYGAGWNFIDYEDKTVGDLFLERNQSRESPLYRRLVEAGVSAELLLRKLNGGDVEFLDTDELIGIEPEESVQTAVDGQKEESVGSDDDATAANQQVYLKTELEYKDDALITKENKDGVMMDWETKIMELASETLFPDPEATNSATILNIGFGMGIIDTFIQARKPYRHYICEAHPDVLAKMKMDGWYEKDNVVILEGRWQDTLNNLLDKGEVFFDGIYYDTFSEHYQDILDLYDVVVGLIKPEGVFSFFNGLGADRSLCYDVYKEIVEIDVATYGMKCDYTRYSLDEQLPDWNDVKRSYFNCNYYYHPRITFA
B5: Rtt102 (protein, UniProt P53330 1-157)
chain: MDPQTLITKANKVSYYGNPTSKESWRYDWYQPSKVSSNVQQPQQQLGDMENNLEKYPFRYKTWLRNQEDEKNLQRESCEDILDLKEFDRRILKKSLMTSHTKGDTSKATGAPSANQGDEALSVDDIRGAVGNSEAIPGLSAGVNNDNTKESKDVKMN

These molecules were tested against Snf2-GFP (S. cerevisiae) (UniProt P22082) (assay: affinity purification with mass spectrometry).

Row | binding | Molecule
1 | binds | Snf5 (endogenous) (from UniProt P18480 1-905)
2 | binds | Swp82 (from UniProt P43554 1-623)
3 | binds | Snf12 (from UniProt P53628 1-566)
4 | binds | Snf6 (from UniProt P18888 1-332)
5 | binds | Taf14 (from UniProt P35189 1-244)
6 | binds | Arp9 (from UniProt Q05123 1-467)
7 | binds | Arp7 (from UniProt Q12406 1-477)
8 | binds | Swi3 (from UniProt P32591 1-825)
9 | binds | B1
10 | no binding | B2
11 | binds | B3
12 | binds | B4
13 | binds | B5
